Laboratory results from publication PMC6770063, “Utilizing the Combination of Binding Kinetics and Micro-Pharmacokinetics Link in Vitro α-Glucosidase Inhibition to in Vivo Target Occupancy” (Biomolecules, 2019).

Experiment: TPK model, free compound concentration in the unstirred water layer (UWL), rat

## O=C(O[C@@H]1Cc2c(O)cc(O)cc2O[C@@H]1c1cc(O)c(O)c(O)c1)c1cc(O)c(O)c(O)c1 [EGCG, epigallocatechin gallate]
colon
  Ratio (dissociation half-life / UWL half-life): 0.09
duodenum
  Ratio (dissociation half-life / UWL half-life): 0.59
ileum
  Ratio (dissociation half-life / UWL half-life): 0.59
jejunum
  Ratio (dissociation half-life / UWL half-life): 0.07

## O=C(O[C@@H]1Cc2c(O)cc(O)cc2O[C@@H]1c1ccc(O)c(O)c1)c1cc(O)c(O)c(O)c1 [ECG, Epicatechin gallate]
colon
  Ratio (dissociation half-life / UWL half-life): 0.07
duodenum
  Ratio (dissociation half-life / UWL half-life): 0.92
ileum
  Ratio (dissociation half-life / UWL half-life): 0.43
jejunum
  Ratio (dissociation half-life / UWL half-life): 0.11
